Results deposited as PubChem BioAssay AID1259425 (University of Nebraska Medical Center, 2018).
Shown is one part, drawn at random, of about 14,000 reagents tested. The record does not give: the time to read-out.

- Assay: 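Find knockdowns that reproduce the gene expression pattern seen when KSR1 is lost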 (primary screen)
- Cells: HCT116 human colon cancer cells
- Reagents: siRNA pool against human genes, 50 nM siRNA
- Measurement: 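mRNA of six signature genes measured together by branched-DNA assay after 50 nM siRNA pool, blank removed, divided by geometric mean of two housekeeping genes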
- Direction: BNIP3L mRNA: higher = more BNIP3L transcript after knockdown; NDRG1 mRNA: higher = more NDRG1 transcript after knockdown; BNIP3 mRNA: higher = more BNIP3 transcript after knockdown; ALDOC mRNA: higher = more ALDOC transcript after knockdown; ACSL5 mRNA: higher = more ACSL5 transcript after knockdown

no.	gene symbol	BNIP3L mRNA, set 1	NDRG1 mRNA, set 1	BNIP3 mRNA, set 1	ALDOC mRNA, set 1	ACSL5 mRNA, set 1
1	DENND1A	0.0558	0.103	0.412	0.0336	0.0987
2	RHPN2	0.142	0.614	0.435	0.0774	0.674
3	PCDHB13	0.29	0.218	0.331	0.0532	0.64
4	HPRT1	0.127	0.183	0.378	0.0172	0.145
5	GPR82	0.187	0.198	0.223	0.0339	0.17
6	IL10RA	0.0853	1.3	0.185	0.0149	0.175
7	PAK6	0.116	0.118	0.338	0.00927	0.201
8	CIDEC	0.0324	0.117	0.297	0.0369	0.387
9	FCHSD2	0.178	0.195	0.471	0.0323	0.149
10	TAS2R41	0.108	0.188	0.209	0.059	0.238
11	KANSL2	0.0669	0.258	0.209	0.019	0.127
12	ADCY8	0.0537	0.117	0.326	0.00805	0.0729
13	AKR1B10	0.115	0.12	0.296	0.0262	0.211
14	CPT1A	0.0782	0.196	0.282	0.0148	0.241
15	ATP1A1	0.165	0.0722	0.447	0.0669	0.0983
16	EDA	0.048	0.101	0.269	0.0262	0.0865
17	CCL23	0.173	0.285	0.359	0.056	0.0988
18	IFNG	0.107	0.121	0.186	0.0148	0.0606
19	H4C4	0.0756	0.137	0.193	0.0282	0.0731
20	KCNC2	0.111	0.477	0.219	0.0415	0.336
21	RBPMS	0.154	0.245	0.251	0.0252	0.146
22	ANG	0.16	0.161	0.303	0.03	0.139
23	NR1I2	0.0574	0.285	0.383	0.016	0.215
24	CAMK2D	0.133	0.0608	0.179	0.0136	0.226
25	CROT	0.0605	0.248	0.204	0.00428	0.186
26	ZNF177	0.182	0.326	0.333	0.0573	0.149
27	BEST2	0.0933	0.125	0.327	0.0244	0.11
28	EIF3F	0.0818	0.232	0.382	0.0658	0.289
29	HCRTR2	0.112	0.323	0.286	0.0269	0.142
30	RPS13	0.0287	0.155	0.381	0.00378	0.0906

Copied from the list:
PCDHB13, NDRG1 mRNA, set 1: 0.218
Value for H4C4 in “ACSL5 mRNA, set 1”: 0.0731
Result of ANG in “ACSL5 mRNA, set 1”: 0.139
Under “ACSL5 mRNA, set 1”, RBPMS is entered as 0.146

Continued.
no.	gene symbol	BNIP3L mRNA, set 1	NDRG1 mRNA, set 1	BNIP3 mRNA, set 1	ALDOC mRNA, set 1	ACSL5 mRNA, set 1
31	KIF25	0.0629	0.301	0.198	0.0244	0.15
32	BSG	0.0923	0.195	0.322	0.0347	0.308
33	SLC5A3	0.0454	0.216	0.248	0.0241	0.146
34	TTC7A	0.267	0.316	0.242	0.0841	0.48
35	RBCK1	0.0793	0.509	0.226	0.0278	0.135
36	KATNAL1	0.146	0.266	0.298	0.089	0.524
37	CCR9	0.123	0.328	0.283	0.0264	0.202
38	CALCA	0.072	0.192	0.195	0.0108	0.115
39	MX2	0.0525	0.184	0.257	0.0179	0.131
40	IL17B	0.0745	0.124	0.318	0.0707	0.107
41	FLYWCH1	0.254	0.244	0.216	0.0943	0.456
42	FBXL18	0.0981	0.292	0.348	0.0262	0.206
43	FGF14	0.387	0.0962	0.392	0.0431	0.282
44	ADM2	0.137	0.179	0.248	0.0162	0.217
45	CBX2	0.104	0.476	0.223	0.0335	0.241
46	MYL5	0.274	0.46	0.727	0.0693	0.194
47	CDH2	0.0525	0.106	0.277	0.00577	0.158
48	ITGB5	0.106	0.125	0.243	0.0173	0.111
49	CLCN3	0.0844	0.107	0.249	0.0125	0.0993
50	CD1E	0.0455	0.174	0.287	0.0167	0.227
